PubChem BioAssay AID1487 (National Center for Advancing Translational Sciences (NCATS), 2009)
The list shows a part of the results. Further columns of the screen follow, without active or inactive calls. Most of these compounds were active or inconclusive in the main read-out, so they are no random draw. Potencies come from curve fits of mixed quality, noted in brackets.

Assay: qHTS Assay for Modulators of Lamin A Splicing
Conditions: HeLa LMNA splicing GFP/RFP minigene ratio, 48 h
Outline: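 S3 HeLa stable clones carrying a lamin A-EGFP splicing minigene plus DsRed2 were seeded at 600 cells/well in Opti-MEM with 2% FBS, pin-dosed and incubated 48 h at 37°C. Acumen cytometry (488 nm) gave the GFP/RFP total-intensity ratio.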

[1] = measured here: RFP viability control channel
[2] = measured here: GFP splicing reporter channel

With `COC(=O)c1cccc(S(=O)(=O)N2CCC(c3nc4ccccc4o3)CC2)c1` the AC50 [1] was 15.8 µM [rising, single point].
With `Cc1nc2ccccn2c1C(=O)N/N=C/c1ccc([N+](=O)[O-])o1` the AC50 [2] was 28.2 µM [falling, single point].
With `CC1(C)O[C@@H]1COc1c2ccoc2cc2oc(=O)ccc12` the AC50 [1] was 6.31 µM [rising, partial curve, poor fit].
With `Cc1nn(Cc2ccc([N+](=O)[O-])cc2)c(=O)n1-c1ccc(Cl)cc1` the AC50 [1] was 0.02 µM [falling, partial curve, poor fit].
For `Cc1cccc(OCC(=O)Nc2cc(-c3ccccc3F)nn2-c2ccccc2)c1`, the AC50 [2] was 2.82 µM [rising, single point].
In the case of `O=C(O)CCCCCNC(=O)c1cccc(Br)c1`, the AC50 [1] is reported as 35.5 µM [falling, single point].
With `N/C(=N\c1nc2ccccc2o1)NC(=O)c1cccc(Cl)c1` the AC50 [2] was 0.0794 µM [rising, full curve].
For `N#Cc1c[nH]n2c(=O)c3c(nc12)CCC3`, the AC50 [2] was 22.4 µM [rising, single point].
In the case of `CCOC(=O)N1CCN(C(=O)COc2cc(C)c(Cl)c(C)c2)CC1`, the AC50 [2] is reported as 28.2 µM [falling, partial curve] and the AC50 [1] is reported as 14.1 µM [falling, partial curve, poor fit].
With `CCc1cc2c(NCC3CCCO3)nc(C)nc2s1` (stereo unspecified) the AC50 [1] was 17.8 µM [rising, single point].
With `CC(C)NC(=O)N1CCN(S(=O)(=O)c2ccc3c(ccn3C)c2)CC1` the AC50 [2] was 0.316 µM [falling, full curve, poor fit].
In the case of `CCOC(=O)c1cccc(NC(=O)/C=C/c2ccc3c(c2)OCO3)c1`, the AC50 [2] is reported as 8.91 µM [rising, partial curve] and the AC50 [1] is reported as 14.1 µM [rising, partial curve].
For `Cc1ccc(-c2nc(CSCC(=O)NCCCN3CCOCC3)c(C)o2)cc1`, the AC50 [1] was 5.01 µM [rising, partial curve].
For `COc1ccc(C(=O)NCc2cccnc2)cc1C(=O)NCc1cccnc1`, the AC50 [2] was 0.00891 µM [falling, full curve, poor fit].
In the case of `Cc1cc(C)cc(OCc2ccc(C(=O)N3N=C(C(F)F)CC3(O)C(F)F)o2)c1` (stereo unspecified), the AC50 [1] is reported as 2.24 µM [rising, single point].
For `Cc1cc(N(CCO)CCO)nc(-n2nc(C)cc2C)n1`, the AC50 [1] was 0.00355 µM [falling, full curve, poor fit].
In the case of `CNc1ccccc1C(C)(C)c1cc(-c2cc(C)cc(C)c2)no1`, the AC50 [1] is reported as 20 µM [rising, partial curve].
For `Cc1c(C(=O)Nc2cccc(Cl)c2)sc2nc3n(c(=O)c12)N=C(c1cccc(Br)c1)CS3`, the AC50 [2] was 0.501 µM [rising, full curve, poor fit].
With `O=C(Nc1ccc([N+](=O)[O-])cc1)Nc1ccc2c(c1)OCCO2` the AC50 [1] was 35.5 µM [falling, partial curve].
With `CCN(CC)S(=O)(=O)c1ccc(C(=O)NNc2nc(-c3ccccc3)c3cc(Br)ccc3n2)cc1` the AC50 [1] was 25.1 µM [rising, single point].
With `CCOc1ccc(-c2cc(C(=O)Oc3ccc(C#N)cc3)no2)cc1` the AC50 [1] was 0.708 µM [rising, full curve, poor fit].
In the case of `O=C(CCS(=O)(=O)c1ccccc1)N(Cc1cccnc1)c1nc2ccc(Cl)cc2s1`, the AC50 [2] is reported as 25.1 µM [falling, partial curve, poor fit] and the AC50 [1] is reported as 35.5 µM [falling, single point].
In the case of `COC(=O)C1=C(C)N(c2ccc(Cl)c(Cl)c2)C(=O)C1`, the AC50 [2] is reported as 17.8 µM [falling, single point].
With `Cc1ccc(C)c(NC(=S)NNC(=O)c2csc(C)c2)c1` the AC50 [2] was 20 µM [rising, partial curve] and the AC50 [1] was 35.5 µM [rising, single point].
For `COc1ccc(N2CCN(CCCNC(=O)c3cc(Nc4ccc(OC)cc4OC)nc4ccccc34)CC2)cc1`, the AC50 [1] was 31.6 µM [rising, single point].
In the case of `O=[N+]([O-])c1cccnc1N1CCC(c2cc(-c3ccc(Cl)cc3)n[nH]2)CC1`, the AC50 [2] is reported as 25.1 µM [falling, single point] and the AC50 [1] is reported as 22.4 µM [falling, partial curve].
For `CC1CCc2c(sc3ncnc(NCCCOC(C)C)c23)C1` (stereo unspecified), the AC50 [2] was 20 µM [rising, partial curve, poor fit] and the AC50 [1] was 22.4 µM [rising, single point].
For `COc1ccc(-c2cn3ccc4ccccc4c3n2)cc1`, the AC50 [1] was 14.1 µM [rising, single point].
With `CCOc1cccc(CNCc2cccnc2)c1OCc1ccccc1` the AC50 [2] was 0.00316 µM [falling, full curve, poor fit] and the AC50 [1] was 0.00316 µM [falling, full curve, poor fit].
In the case of `O=c1c2ccccc2sn1-c1cc(S(=O)(=O)N2CCOCC2)ccc1N1CCOCC1`, the AC50 [1] is reported as 31.6 µM [falling, single point].
In the case of `Clc1ccc(CSc2nnnn2-c2ccc3c(c2)OCO3)c(Cl)c1`, the AC50 [2] is reported as 11.2 µM [rising, partial curve, poor fit] and the AC50 [1] is reported as 20 µM [rising, single point].
With `COc1ccc(C(=O)NC(=S)NNC(=O)c2ccc(NC(=O)C(C)C)cc2)cc1` the AC50 [1] was 12.6 µM [rising, partial curve].
In the case of `CC(=O)Nc1ccc(-n2cc(-c3ccccc3)[nH]c2=S)cc1`, the AC50 [2] is reported as 4.47 µM [falling, full curve, poor fit].
With `O=C(c1nn(Cc2ccccc2)c(=O)c2ccccc12)N1CCN(c2ccccn2)CC1` the AC50 [2] was 10 µM [rising, partial curve] and the AC50 [1] was 7.08 µM [rising, partial curve, poor fit].
With `O=C(NCc1cccnc1)C(=O)NCC(c1ccco1)N1CCN(c2ccc(F)cc2)CC1` (stereo unspecified) the AC50 [1] was 17.8 µM [rising, single point].
For `Cc1cc(C)[n+](C)n1CC(O)Cn1c2ccccc2c2ccccc21` (stereo unspecified), the AC50 [2] was 0.316 µM [falling, full curve, poor fit].
For `CCn1c2ccccc2c2cc(NC(=O)COc3ccccc3OC)ccc21`, the AC50 [1] was 7.94 µM [rising, partial curve].
